According to PubChem BioAssay AID330 (DTP/NCI, 2004):
The list is a part of this screen's results and no random one: it gathers tests that were run many times, whatever their T/C, doses with no T/C, and many T/C values between a quarter and a half above the control. Other doses and runs of a compound stand elsewhere. T/C: endpoint of the treated group in % of that of the vehicle group. Some doses have a count of surviving animals in place of a T/C: the source holds a T/C of zero for them, seemingly a mark for toxic or unscored doses. Some survivor counts are full or nearly so, which does not show that the dose was tolerated: the source hardly ever lists a survival T/C far under the control, and the zero likely stands for such cases as well. Counts of survivors are from the toxicity check (mostly the fifth day) where no day follows; animals may have died later. Schedules are NCI's codes, read here as Q, the interval in days (D) or hours (H), X, the number of doses. For survival time, this PubChem deposit counts one and a half times the control or more as active, and values a quarter to a half above the control carry no call in these data; other NCI protocols may use other cut-offs. Some entries were tested several times; the values are given in rising order.

Test system: P388 leukemia ip, CD2F1 mice, survival T/C
Test: NCI In Vivo Anticancer Drug Screen. Data for tumor model P388 Leukemia (intraperitoneal) in CD2F1 (CDF1) mice
Conditions: T/C endpoint: median survival time, higher T/C = longer survival
[1] = dose: 25.0 mg/kg/injection, schedule: Q01DX009 (ip), vehicle: Klucel (hydroxypropylcellulose) (HPC)
[2] = dose: 200.0 mg/kg/injection, schedule: Q01DX009 (ip), vehicle: Klucel (hydroxypropylcellulose) (HPC)
[3] = dose: 50.0 mg/kg/injection, schedule: Q01DX009 (ip), vehicle: Klucel (hydroxypropylcellulose) (HPC)
[4] = dose: 100.0 mg/kg/injection, schedule: Q01DX009 (ip), vehicle: Klucel (hydroxypropylcellulose) (HPC)
[5] = dose: 240.0 mg/kg/injection, schedule: Q01DX005 (ip), vehicle: saline with Tween-80
[6] = dose: 100.0 mg/kg/injection, schedule: Q01DX005 (ip), vehicle: saline with Tween-80
[7] = dose: 200.0 mg/kg/injection, schedule: Q01DX009 (ip), vehicle: saline with Tween-80
[8] = dose: 200.0 mg/kg/injection, schedule: Q04DX003 (ip), vehicle: saline with Tween-80
[9] = dose: 200.0 mg/kg/injection, schedule: Q01DX005 (ip), vehicle: saline with Tween-80
[10] = dose: 200.0 mg/kg/injection, schedule: Q01DX005 (ip), vehicle: Klucel (hydroxypropylcellulose) (HPC)

CC(C)NC(=O)OCc1c(COC(=O)NC(C)C)c(-c2ccc(Cl)c(Cl)c2)n2c1C[C@@H](O)C2 was tested, and the T/C (dose: 6.25 mg/kg/injection, schedule: Q01DX005 (ip), vehicle: Klucel (hydroxypropylcellulose) (HPC)) was 140 % of control, the T/C (dose: 10.0 mg/kg/injection, schedule: Q01DX005 (ip), vehicle: Klucel (hydroxypropylcellulose) (HPC)) was 129 % of control and the T/C (dose: 12.5 mg/kg/injection, schedule: Q01DX005 (ip), vehicle: Klucel (hydroxypropylcellulose) (HPC)) was 147 % of control. The T/C (dose: 20.0 mg/kg/injection, schedule: Q01DX005 (ip), vehicle: Klucel (hydroxypropylcellulose) (HPC)) was 134 % of control, the T/C (dose: 25.0 mg/kg/injection, schedule: Q01DX005 (ip), vehicle: Klucel (hydroxypropylcellulose) (HPC)) was 145 % of control and the T/C (dose: 40.0 mg/kg/injection, schedule: Q01DX005 (ip), vehicle: Klucel (hydroxypropylcellulose) (HPC)) was 136 % of control. The T/C (dose: 80.0 mg/kg/injection, schedule: Q01DX005 (ip), vehicle: Klucel (hydroxypropylcellulose) (HPC)) was 149 % of control.
For COC1OC(CO)C(O)C(NC(=O)N(C)N=O)C1O (stereo unspecified), the T/C (dose: 50.0 mg/kg/injection, schedule: Q01DX009 (ip), vehicle: saline) was 145 and 147 % of control.
In the case of Nc1ncnc2c1nnn2C1OC(CO)C(O)C1O (stereo unspecified), the T/C [1] is reported as 137 % of control and the survivor count [2] is reported as 5 of 6.
With C[CH2][Sn]([Br])([c]1ccccc1)[c]1ccccc1CN(C)C (stereo unspecified) the survivor count (dose: 200.0 mg/kg/injection, schedule: Q01DX009 (ip), vehicle: saline) was 5 of 6.
In the case of Cc1c(CNc2ccc(C(=O)NC(CC(=O)O)CC(=O)O)cc2)ccc2nc(N)nc(N)c12, the T/C (dose: 1.5 mg/kg/injection, schedule: Q01DX009 (ip), vehicle: saline with Tween-80) is reported as 127 % of control, the T/C (dose: 3.0 mg/kg/injection, schedule: Q01DX009 (ip), vehicle: saline with Tween-80) is reported as 145 % of control and the T/C (dose: 6.0 mg/kg/injection, schedule: Q01DX009 (ip), vehicle: saline with Tween-80) is reported as 140 % of control. The survivor count (dose: 6.25 mg/kg/injection, schedule: Q04DX003 (ip), vehicle: saline) was 5 of 6, the survivor count (dose: 12.5 mg/kg/injection, schedule: Q01DX009 (ip), vehicle: saline sonified) was 6 of 6 and the survivor count (dose: 12.5 mg/kg/injection, schedule: Q04DX003 (ip), vehicle: saline) was 4 of 6. For the same compound, the survivor count (dose: 25.0 mg/kg/injection, schedule: Q01DX009 (ip), vehicle: saline sonified) was 5 of 6, the survivor count (dose: 25.0 mg/kg/injection, schedule: Q04DX003 (ip), vehicle: saline) was 4 of 6 and the survivor count (dose: 50.0 mg/kg/injection, schedule: Q01DX009 (ip), vehicle: saline sonified) was 4 of 6. For the same compound, the survivor count (dose: 50.0 mg/kg/injection, schedule: Q04DX003 (ip), vehicle: saline) was 0 of 6 and the survivor count (dose: 75.0 mg/kg/injection, schedule: Q04DX003 (ip), vehicle: saline sonified) was 6 of 6.
With N#CC(C#N)=NNc1ccc([N+](=O)[O-])cc1Cl the survivor count [1] was 0 of 6, the survivor count [3] was 0 of 6 and the survivor count [4] was 1 of 6. The survivor count [2] was 0 of 6.
In the case of CC(C)SC=O, the survivor count (dose: 400.0 mg/kg/injection, schedule: Q01DX009 (ip), vehicle: Klucel (hydroxypropylcellulose) (HPC)) is reported as 3 of 6.
With Cc1nccn1Cc1ccc(Cl)cc1Cl the survivor count [5] was 0 of 6.
O=P(c1ccccc1)(c1ccccc1)c1ccccc1.O=P(c1ccccc1)(c1ccccc1)c1ccccc1.O=P(c1ccccc1)(c1ccccc1)c1ccccc1.O=P(c1ccccc1)(c1ccccc1)c1ccccc1.[Cr+3].[O-][Cl+3]([O-])([O-])O was tested, and the survivor count (dose: 400.0 mg/kg/injection, schedule: Q04DX003 (ip), vehicle: saline + Tween-80 + alcohol) was 0 of 6.
CCc1ccc[n+](CCC2CNc3ccccc32)c1 (stereo unspecified) was tested, and the survivor count (dose: 100.0 mg/kg/injection, schedule: Q01DX005 (ip), vehicle: saline) was 0 of 5 and the survivor count (dose: 200.0 mg/kg/injection, schedule: Q01DX005 (ip), vehicle: saline) was 0 of 5.
With CC(C)[C@H]1OC(=O)C=C2[C@@]13O[C@@H]3[C@H]1OC(=O)[C@]3(C)C1[C@]2(C)CC[C@@H]3O (stereo partly specified) the T/C (dose: 10.0 mg/kg/injection, schedule: Q01DX009 (ip), vehicle: saline with Tween-80) was 125 and 129 % of control and the T/C (dose: 20.0 mg/kg/injection, schedule: Q01DX009 (ip), vehicle: saline with Tween-80) was 125 % of control.
With [Cl][Pt+2][Cl].[NH-]CCC[NH-] the survivor count (dose: 25.0 mg/kg/injection, schedule: Q04DX002 (ip), vehicle: saline) was 0 of 6.
In the case of Cn1c(=O)c2c(nc(Br)n2C)n(C)c1=O, the survivor count [4] is reported as 6 of 6 and the survivor count [2] is reported as 0 of 6.
For Cc1ccc2nc(N(C)C)cc(N(C)C)c2c1, the survivor count [3] was 6 of 6, the survivor count [4] was 5 of 6 and the survivor count [2] was 5 of 6.
For CN=NN/C1=C/CCCCCC1, the survivor count (dose: 120.0 mg/kg/injection, schedule: Q01DX005 (ip), vehicle: Klucel + Tween-80) was 3 of 6 and the survivor count (dose: 240.0 mg/kg/injection, schedule: Q01DX005 (ip), vehicle: Klucel + Tween-80) was 0 of 6.
For CSCCCNC(=O)c1csc(-c2csc(CCNC(=O)[C@@H](NSc3ccccc3[N+](=O)[O-])[C@@H](C)O)n2)n1, the survivor count [6] was 5 of 5.
In the case of CCOP(=S)(N1CC1(C)C)N1CC1(C)C (stereo unspecified), the survivor count [7] is reported as 4 of 6, the T/C [8] is reported as 127 % of control and the survivor count (dose: 400.0 mg/kg/injection, schedule: Q01DX009 (ip), vehicle: saline with Tween-80) is reported as 1 of 6. For the same compound, the survivor count (dose: 600.0 mg/kg/injection, schedule: Q04DX003 (ip), vehicle: saline with Tween-80) was 5 of 6.
In the case of COc1cc2c(c(NC(C)CCCN=C(N)NC(N)=NC(C)C)c1)NCCC2 (stereo unspecified), the survivor count (dose: 50.0 mg/kg/injection, schedule: Q01DX005 (ip), vehicle: saline with Tween-80) is reported as 0 of 6, the survivor count [6] is reported as 0 of 6 and the survivor count [9] is reported as 0 of 6.
In the case of COc1cc(N(C)C)c(OC)cc1/C=C\c1ccnc2ccccc12, the T/C [8] is reported as 136 % of control and the survivor count (dose: 400.0 mg/kg/injection, schedule: Q04DX003 (ip), vehicle: saline with Tween-80) is reported as 6 of 6.
Cc1ccc(NCCNCCO)c2c(=O)c3ccc(O)cc3sc12 was tested, and the T/C (dose: 12.5 mg/kg/injection, schedule: Q01DX009 (ip), vehicle: saline with Tween-80) was 130 % of control, the T/C (dose: 25.0 mg/kg/injection, schedule: Q01DX009 (ip), vehicle: saline with Tween-80) was 133 % of control and the T/C (dose: 50.0 mg/kg/injection, schedule: Q01DX009 (ip), vehicle: saline with Tween-80) was 146 % of control. For the same compound, the survivor count [7] was 4 of 6.
COc1ccc(C=C2C(=O)C=CC2=O)cc1O was tested, and the survivor count (dose: 25.0 mg/kg/injection, schedule: Q04DX002 (ip), vehicle: saline with Tween-80) was 0 of 6, the survivor count (dose: 50.0 mg/kg/injection, schedule: Q04DX002 (ip), vehicle: saline with Tween-80) was 0 of 6 and the survivor count (dose: 100.0 mg/kg/injection, schedule: Q04DX002 (ip), vehicle: saline with Tween-80) was 0 of 6.
For CCOC(=O)C1=C(C(=O)c2ccc(C)cc2)C(c2ccc(Cl)cc2Cl)C(C(=O)c2ccc(C)cc2)=C(C(=O)OCC)N1, the survivor count [5] was 5 of 6.
O=C1c2cccc3c([N+](=O)[O-])ccc(c23)C(=O)N1NCCO was tested, and the survivor count [9] was 0 of 6.
With CCCCN1C(=O)/C(=C/c2ccccc2OC)SC1=S the survivor count [10] was 5 of 5.
CC1CCC(C#N)C1=N (stereo unspecified) was tested, and the survivor count (dose: 100.0 mg/kg/injection, schedule: Q01DX001 (ip), vehicle: saline with Tween-80) was 0 of 6, the survivor count (dose: 200.0 mg/kg/injection, schedule: Q01DX001 (ip), vehicle: saline with Tween-80) was 0 of 6 and the survivor count (dose: 400.0 mg/kg/injection, schedule: Q01DX001 (ip), vehicle: saline with Tween-80) was 0 of 6.
For C#CCC(C(C)=O)C(C)=O.[C-]#[O+].[C-]#[O+].[C-]#[O+].[C-]#[O+].[C-]#[O+].[C-]#[O+].[Co].[Co], the survivor count (dose: 100.0 mg/kg/injection, schedule: Q01DX005 (ip), vehicle: Klucel (hydroxypropylcellulose) (HPC)) was 0 of 6 and the survivor count [10] was 0 of 6.
